Data published in the supplement of paper PMC7646827.
Counter-ions that a name gives are not always drawn. Repeats are few or missing, and single values can be far off.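 All cells are established human bladder cancer lines, one derived from a patient-derived xenograft. A luminescent ATP assay measured viability as percent inhibition relative to vehicle across seven dilutions. The paper rates scores above 59 very active, 30–59 active, 21–29 semi-active, 9–20 low active, below 9 inactive.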

How the values were obtained:
Experiment in all cases: drug sensitivity score DSS3 (score 0-100); higher = more sensitive; extreme values may be limits of the assay
Settings in all cases: culture: 3D, ultra-low attachment; treatment time: 5 days
UM-UC-6 = test system: UM-UC-6
UM-UC-3 = test system: UM-UC-3
SCaBER = test system: SCaBER
UM-UC-5 = test system: UM-UC-5
TCCSUP = test system: TCCSUP
UM-UC-18 = test system: UM-UC-18
BC8149 = test system: BC8149
5637 = test system: 5637
UM-UC-12 = test system: UM-UC-12
UM-UC-15 = test system: UM-UC-15
UM-UC-14 = test system: UM-UC-14
UM-UC-1 = test system: UM-UC-1
SW780 = test system: SW780
J82 = test system: J82
T-24 = test system: T-24
UM-UC-17 = test system: UM-UC-17
UM-UC-9 = test system: UM-UC-9

SMILES	drug sensitivity score DSS3 (UM-UC-6)	drug sensitivity score DSS3 (UM-UC-3)	drug sensitivity score DSS3 (SCaBER)	drug sensitivity score DSS3 (UM-UC-5)	drug sensitivity score DSS3 (TCCSUP)	drug sensitivity score DSS3 (UM-UC-18)	drug sensitivity score DSS3 (BC8149)	drug sensitivity score DSS3 5637	drug sensitivity score DSS3 (UM-UC-12)	drug sensitivity score DSS3 (UM-UC-15)	drug sensitivity score DSS3 (UM-UC-14)	drug sensitivity score DSS3 (UM-UC-1)	drug sensitivity score DSS3 (SW780)	drug sensitivity score DSS3 (J82)	drug sensitivity score DSS3 (T-24)	drug sensitivity score DSS3 (UM-UC-17)	drug sensitivity score DSS3 (UM-UC-9)
NC(=O)c1ccc(-c2nc(-c3ccccn3)c(-c3ccc4c(c3)OCO4)[nH]2)cc1 (max dose 10000 nM)	2.46	0	0.264	0	2.46	1.34	1.72	2.69	2.41	0	4.46	1.34	0.539	0.0489	0	1.52	0.808
CC/C(=C(\c1ccccc1)c1ccc(OCCN(C)C)cc1)c1ccccc1 [Tamoxifen Citrate] (max dose 10000 nM)	0.732	0.168	0	0	0	0	0	0	0.229	0	0.178	0	0	0	0	0	0
C[C@@H]1CN(CC(=O)Nc2ccc3c(c2)Cc2cccc(-c4cc(=O)cc(N5CCOCC5)o4)c2S3)C[C@H](C)O1 (max dose 10000 nM)	0.177	2.74	0.0136	0	1.21	0	4.89	0.73	0	0	0.0658	0	0	0	0	0.253	0
Cc1ccc([C@@H]2O[C@H](CO)[C@@H](O)[C@H](O)[C@H]2O)cc1Cc1ccc(-c2ccc(F)cc2)s1 [Canagliflozin] (max dose 10000 nM)	0	0	0	0	0	0	0.183	0	0	0	0	0	0	0	0	0	0
O=C(NC[C@H](O)CN1CCc2ccccc2C1)c1cc(NC2COC2)ncn1 (max dose 10000 nM)	0	0.104	0	0	2.03	3.56	0	1.04	0	0	0.273	0	0	0	0	0.0841	0
O=C1Nc2ccc(I)cc2/C1=C/c1cc(Br)c(O)c(Br)c1 [GW5074] (max dose 10000 nM)	0	0.416	7.83	0	2.07	2.39	25.6	3.68	10.9	0.725	10.1	0.204	2.98	3.49	0	0	0
CCn1cc(-c2cccc(C(F)(F)F)c2)c2sc(C(=N)NC3CCS(=O)(=O)CC3)cc2c1=O [I-BRD9] (max dose 10000 nM)	4.6	0.818	0.0344	1.56	10.8	5.95	0	4.94	3.98	2.66	4.89	1.39	1.14	0	0	0.837	3.09
O=C(COc1ccc(Cl)cc1)NC1CCC(NC(=O)COc2ccc(Cl)cc2)CC1 (stereo not drawn) [ISRIB (trans-isomer)] (max dose 10000 nM)	0	0	0	0	0	0.374	0	0	0	0	0	0	0	0	0	0	0
CCN(c1cc(-c2ccc(CN3CCOCC3)cc2)cc(C(=O)NCc2c(C)cc(C)[nH]c2=O)c1C)C1CCOCC1 [tazemetostat] (max dose 5000 nM)	6.87	0	0	0	14.5	0	0	5.75	0	0	2.69	6.22	0.18	0	0	5.1	0
CCCCCCCc1ccc(CCc2cccc(O)c2C(=O)O)cc1 [MG149] (max dose 10000 nM)	0.772	1	0.75	0.33	7.93	0	5.41	3.65	1.13	0	2.88	2.47	0.0832	0	0	2.29	0.884
COc1cc(F)ccc1-c1ncnc(Nc2cccc(C[S@](C)(=N)=O)c2)n1 (max dose 10000 nM)	10.2	16.6	6.74	13	3.17	5.08	8.24	3.14	4.86	11.1	1.94	11.9	1.94	2.74	3.47	2.69	6.41
O=C(Nc1ccccc1Br)N[C@@H]1CCN(c2ccc(C(F)(F)F)cn2)C1 (max dose 10000 nM)	0	0	0	0	0	0	0	0	0	2.05	0	37.3	0	0	0	0	0
CC(=O)N1c2ccc(-c3ccc(C(=O)O)cc3)cc2[C@H](Nc2ccc(Cl)cc2)C[C@@H]1C (max dose 10000 nM)	0	0	0	0	0.219	0	0.148	1.37	10.5	0	0	0	0	0	0	2.95	13.8
Nc1nc(NC2CC2)cc(-c2cccc(Cl)c2Cl)n1 [TH588] (max dose 10000 nM)	0.462	0	0.0563	0	1.04	0	0.813	0.771	0	0	1.51	0.784	0	0	0	1.71	0
N#C[C@@H]1C[C@@H]2C[C@@H]2N1C(=O)[C@@H](N)C12CC3CC(CC(O)(C3)C1)C2 [Saxagliptin hydrate] (max dose 10000 nM)	0	0	0	0	0	0	0	0	0	0	0	0	0	0	0	0	0
CCN1CCN(Cc2ccc(Nc3ncc(F)c(-c4cc(F)c5nc(C)n(C(C)C)c5c4)n3)nc2)CC1 [Abemaciclib Mesylate] (max dose 10000 nM)	0	23.4	17.6	0	15.3	7.06	40.2	16.9	25.7	3.97	5.34	3.76	3.96	5.15	17.8	3.82	1.41
COc1ccc(Cn2ccc3ccc(C(=O)NO)cc32)cc1 (max dose 10000 nM)	0	0	0	0	0	0	0	0	0	0	0	0	0	0	0	0	0
C=C1CCC[C@]2(C)C=C3OC(=O)C(C)=C3C[C@@H]12 [Atractylenolide I] (max dose 10000 nM)	0	0	0	0	0	0.989	0.135	0	0.294	0	0	0.0409	0	0	0.372	0	0
CC(=O)[C@@]1(O)CC[C@H]2[C@@H]3CCC4=CC(=O)CCC4=C3[C@@H](c3ccc(N(C)C)cc3)C[C@@]21C [ulipristal] (max dose 10000 nM)	0	2.05	5	0	3.6	0.815	8.24	1.22	0	0	0	0	0.21	0	0	0	0
Cc1nn(C)c(COc2ccc(N3CCN(S(=O)(=O)N(C)C)CC3)cc2)c1-c1cccc2c(CCCOc3cccc4ccccc34)c(C(=O)O)n(CCN3CCOCC3)c12 (max dose 10000 nM)	0	0	0	0	0	0	0	0	0	0	0	0	0	0	0	0	0
COc1ccc(C(=O)Nc2sc3c(c2C(N)=O)CCCC3)cc1OC [TCS 359] (max dose 10000 nM)	0	0	0.247	0	0.575	0	0	0	0	0	0.0363	0	0	0	0	0	0
CC(=O)c1cnc2ccc(-c3cc(Cl)c(O)c(Cl)c3)nc2c1N[C@H]1CC[C@H](CN(C)C)CC1 [OTSSP167] (max dose 10000 nM)	46.7	58.9	66.4	52.8	57.6	43.5	70	65.6	0	58.7	19.9	58.6	3.04	53.8	24.7	68.1	52.1
O=C1c2c(O)ccc(O)c2C(=O)c2c(NCCNCCO)ccc(NCCNCCO)c21 [Mitoxantrone HCl] (max dose 10000 nM)	8.81	15.8	4.69	0.122	41.9	41.6	32.2	24.9	5.27	0.0974	28.4	29.3	0.451	0	1.07	17.7	2.1
CCN(CCCOc1ccc2c(Nc3cc(CC(=O)Nc4cccc(F)c4)[nH]n3)ncnc2c1)CCOP(=O)(O)O [Barasertib (AZD1152-HQPA)] (max dose 10000 nM)	26.8	2.61	7.26	0	56.2	16.6	24.3	45.6	6.69	0	12.9	26.7	0	0.808	0	20.6	0

Two of the compounds above, as a markdown table:

| SMILES | drug sensitivity score DSS3 (UM-UC-6) | drug sensitivity score DSS3 (UM-UC-3) | drug sensitivity score DSS3 (SCaBER) | drug sensitivity score DSS3 (UM-UC-5) | drug sensitivity score DSS3 (TCCSUP) | drug sensitivity score DSS3 (UM-UC-18) | drug sensitivity score DSS3 (BC8149) | drug sensitivity score DSS3 5637 | drug sensitivity score DSS3 (UM-UC-12) | drug sensitivity score DSS3 (UM-UC-15) | drug sensitivity score DSS3 (UM-UC-14) | drug sensitivity score DSS3 (UM-UC-1) | drug sensitivity score DSS3 (SW780) | drug sensitivity score DSS3 (J82) | drug sensitivity score DSS3 (T-24) | drug sensitivity score DSS3 (UM-UC-17) | drug sensitivity score DSS3 (UM-UC-9) |
| --- | --- | --- | --- | --- | --- | --- | --- | --- | --- | --- | --- | --- | --- | --- | --- | --- | --- |
| O=C(NC[C@H](O)CN1CCc2ccccc2C1)c1cc(NC2COC2)ncn1 (max dose 10000 nM) | 0 | 0.104 | 0 | 0 | 2.03 | 3.56 | 0 | 1.04 | 0 | 0 | 0.273 | 0 | 0 | 0 | 0 | 0.0841 | 0 |
| O=C1Nc2ccc(I)cc2/C1=C/c1cc(Br)c(O)c(Br)c1 [GW5074] (max dose 10000 nM) | 0 | 0.416 | 7.83 | 0 | 2.07 | 2.39 | 25.6 | 3.68 | 10.9 | 0.725 | 10.1 | 0.204 | 2.98 | 3.49 | 0 | 0 | 0 |
